No constants are given. Whether binding was seen depends on the method and setting. In cells and extracts the contact can be indirect. A yes stands for co-enrichment or nearness to the bait. Other partners may have been found.
Target: KDM4B fused to FLAG and HA epitope tags (stably expressed in HeLa cells) (UniProt O94953)
Assay: affinity purification with mass spectrometry; nuclear extract of HeLa S3 cells expressing FLAG-KDM4B; Q-Sepharose, heparin Sepharose, DEAE Sepharose, then M2 agarose; copurified proteins analysed by tandem mass spectrometry

Chains of the proteins cited; added tags and fusions are not shown.
UniProt O94953: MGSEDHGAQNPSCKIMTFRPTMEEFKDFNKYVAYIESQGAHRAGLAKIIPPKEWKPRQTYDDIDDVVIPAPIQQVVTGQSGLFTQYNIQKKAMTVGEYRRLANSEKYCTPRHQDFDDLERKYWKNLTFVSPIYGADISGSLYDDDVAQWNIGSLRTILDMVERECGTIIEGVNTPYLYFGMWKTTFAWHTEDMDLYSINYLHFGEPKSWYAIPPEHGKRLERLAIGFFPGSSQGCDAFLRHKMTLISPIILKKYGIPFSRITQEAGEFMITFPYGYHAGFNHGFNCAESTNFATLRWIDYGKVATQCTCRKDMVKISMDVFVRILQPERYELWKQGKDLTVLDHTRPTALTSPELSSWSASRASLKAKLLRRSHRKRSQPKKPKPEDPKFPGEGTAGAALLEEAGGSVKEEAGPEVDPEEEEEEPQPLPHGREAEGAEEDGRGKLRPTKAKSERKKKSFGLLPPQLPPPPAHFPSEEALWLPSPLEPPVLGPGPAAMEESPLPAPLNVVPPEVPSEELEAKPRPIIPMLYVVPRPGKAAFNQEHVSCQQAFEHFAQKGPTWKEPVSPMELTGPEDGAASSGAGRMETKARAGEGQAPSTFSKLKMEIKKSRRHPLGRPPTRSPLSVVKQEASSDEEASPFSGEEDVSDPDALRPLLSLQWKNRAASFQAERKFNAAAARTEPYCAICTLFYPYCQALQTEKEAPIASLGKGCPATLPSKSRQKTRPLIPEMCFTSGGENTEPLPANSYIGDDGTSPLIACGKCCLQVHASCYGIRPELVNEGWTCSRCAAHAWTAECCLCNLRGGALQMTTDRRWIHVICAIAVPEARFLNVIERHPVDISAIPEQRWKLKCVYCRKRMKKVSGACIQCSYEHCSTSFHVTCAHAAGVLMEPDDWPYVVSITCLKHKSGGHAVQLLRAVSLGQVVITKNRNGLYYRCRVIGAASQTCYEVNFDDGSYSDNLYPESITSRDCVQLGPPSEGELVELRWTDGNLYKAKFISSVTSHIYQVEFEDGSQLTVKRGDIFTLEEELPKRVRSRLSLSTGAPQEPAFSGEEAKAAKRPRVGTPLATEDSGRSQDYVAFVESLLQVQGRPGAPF

B1: CCAR1 (endogenous, HeLa) (protein, UniProt Q8IX12 1-1150)
chain: MAQFGGQKNPPWATQFTATAVSQPAALGVQQPSLLGASPTIYTQQTALAAAGLTTQTPANYQLTQTAALQQQAAAAAAALQQQYSQPQQALYSVQQQLQQPQQTLLTQPAVALPTSLSLSTPQPTAQITVSYPTPRSSQQQTQPQKQRVFTGVVTKLHDTFGFVDEDVFFQLSAVKGKTPQVGDRVLVEATYNPNMPFKWNAQRIQTLPNQNQSQTQPLLKTPPAVLQPIAPQTTFGVQTQPQPQSLLQAQISAASITPLLQTQPQPLLQQPQQKAGLLQPPVRIVSQPQPARRLDPPSRFSGRNDRGDQVPNRKDDRSRERERERRRSRERSPQRKRSRERSPRRERERSPRRVRRVVPRYTVQFSKFSLDCPSCDMMELRRRYQNLYIPSDFFDAQFTWVDAFPLSRPFQLGNYCNFYVMHREVESLEKNMAILDPPDADHLYSAKVMLMASPSMEDLYHKSCALAEDPQELRDGFQHPARLVKFLVGMKGKDEAMAIGGHWSPSLDGPDPEKDPSVLIKTAIRCCKALTGIDLSVCTQWYRFAEIRYHRPEETHKGRTVPAHVETVVLFFPDVWHCLPTRSEWETLSRGYKQQLVEKLQGERKEADGEQDEEEKDDGEAKEISTPTHWSKLDPKTMKVNDLRKELESRALSSKGLKSQLIARLTKQLKVEEQKEEQKELEKSEKEEDEDDDRKSEDDKEEEERKRQEEIERQRRERRYILPDEPAIIVHPNWAAKSGKFDCSIMSLSVLLDYRLEDNKEHSFEVSLFAELFNEMLQRDFGVRIYKSLLSLPEKEDKKEKDKKSKKDERKDKKEERDDETDEPKPKRRKSGDDKDKKEDRDERKKEDKRKDDSKDDDETEEDNNQDEYDPMEAEEAEDEEDDRDEEEMTKRDDKRDINRYCKERPSKDKEKEKTQMITINRDLLMAFVYFDQSHCGYLLEKDLEEILYTLGLHLSRAQVKKLLNKVVLRESCFYRKLTDTSKDEENHEESESLQEDMLGNRLLLPTPTVKQESKDVEENVGLIVYNGAMVDVGSLLQKLEKSEKVRAEVEQKLQLLEEKTDEDEKTILNLENSNKSLSGELREVKKDLSQLQENLKISENMNLQFENQMNKTIRNLSTVMDEIHTVLKKDNVKNEDKDQKSKENGASV
In the case of B1, the binding is reported as “binds”.

Reference: article PMC8144413
